For 1 molecule, binding results are on record in PMC6029753.

Sequences of proteins named here, by UniProt entry; tags and fusion partners are left off.
UniProt Q9ERK7: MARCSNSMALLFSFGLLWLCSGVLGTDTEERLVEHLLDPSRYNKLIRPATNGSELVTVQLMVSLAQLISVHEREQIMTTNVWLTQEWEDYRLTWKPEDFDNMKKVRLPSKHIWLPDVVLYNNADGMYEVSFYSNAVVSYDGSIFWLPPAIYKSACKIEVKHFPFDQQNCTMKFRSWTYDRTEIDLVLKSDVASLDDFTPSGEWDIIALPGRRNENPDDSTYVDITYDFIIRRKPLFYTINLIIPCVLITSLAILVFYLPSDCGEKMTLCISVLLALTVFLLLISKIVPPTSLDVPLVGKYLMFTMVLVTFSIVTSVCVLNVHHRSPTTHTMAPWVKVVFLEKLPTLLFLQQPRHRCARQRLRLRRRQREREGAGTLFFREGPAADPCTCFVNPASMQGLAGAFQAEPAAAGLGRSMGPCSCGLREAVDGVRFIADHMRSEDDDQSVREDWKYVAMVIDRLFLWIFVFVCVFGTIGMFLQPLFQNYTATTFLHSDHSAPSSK

The target in the test is β2-GFP nAChR subunit (mouse (β2-GFP knockin mouse)) (UniProt Q9ERK7). Description: co-IP; rabbit anti-GFP antibodies on Dynabeads A; homogenate (13 mg/ml) of β2-GFP knockin dorsal brain regions containing the DRN, 3 days rotating at RT; 50 mM Tris, 150 mM NaCl, 0.75% Triton-X 100, protease inhibitors; Western blot with anti-lynx1.

Results are given in words; binding and its absence hold for the method and conditions named. Binding seen in cells or lysates may run through a third protein. Some binding calls cover weakened binding; strength is not graded here.

B1: lynx1 (protein, UniProt P0DP60 21-92)
chain: LECHVCAYNGDNCFKPMRCPAMATYCMTTRTYFTPYRMKVRKSCVPSCFETVYDGYSKHASATSCCQYYLCN
Consider B1, for which the binding entry was “binds”.
